Measured values: paper PMC6952976

Amino acid sequences for entries named in this document (tags omitted).
UniProt P42930: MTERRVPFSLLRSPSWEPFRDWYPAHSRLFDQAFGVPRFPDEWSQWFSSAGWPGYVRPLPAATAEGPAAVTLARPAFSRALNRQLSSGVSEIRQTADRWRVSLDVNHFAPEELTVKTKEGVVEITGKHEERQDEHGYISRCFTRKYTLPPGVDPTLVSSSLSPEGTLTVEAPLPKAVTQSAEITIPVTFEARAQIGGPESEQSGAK

Experiments:
[1] = biological target: T1, adenine nucleotide translocase 1 (rat (endogenous in neonatal rat cardiomyocytes)) (UniProt Q05962); assay: affinity purification with mass spectrometry; ANT-specific antibody precipitates from lysates of normoxic WT or ANT1-TG cardiomyocytes; digestion with trypsin on the beads, LC-ESI-MS/MS; spectral counts of unspecific IgGs subtracted
T1 sequence: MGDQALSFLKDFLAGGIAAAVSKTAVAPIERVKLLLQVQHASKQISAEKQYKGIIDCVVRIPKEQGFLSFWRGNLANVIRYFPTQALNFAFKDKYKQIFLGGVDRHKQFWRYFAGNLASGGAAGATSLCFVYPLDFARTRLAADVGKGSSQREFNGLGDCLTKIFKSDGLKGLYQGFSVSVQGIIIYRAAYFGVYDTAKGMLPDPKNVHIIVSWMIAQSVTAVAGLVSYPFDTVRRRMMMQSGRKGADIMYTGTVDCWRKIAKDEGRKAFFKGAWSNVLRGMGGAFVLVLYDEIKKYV

[2] = biological target: T1, adenine nucleotide translocase 1 (rat (endogenous in neonatal rat cardiomyocytes)); assay: condition: only cardiomyocytes kept under hypoxic conditions (24 h, 1% O2); affinity purification with mass spectrometry; ANT-specific antibody precipitates from lysates of hypoxic (24 h, 1% O2) WT or ANT1-TG cardiomyocytes; digestion with trypsin on the beads, LC-ESI-MS/MS

## heat shock protein 27 (from UniProt P42930 1-206)
[1]
  binding: binds
[2]
  binding: no binding

No constants are given. Whether binding was seen depends on the method and setting. Binding seen in cells or lysates may run through a third protein. Here binding means that the protein was enriched with, or labelled near, the bait; the list need not be complete. For some assays here: No binding means not detected with the bait.
